{"source": "PubChem BioAssay AID686938 (Drosophila RNAi Screening Center, 2013)", "purpose": "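Looking for CRAC channel components and the factors controlling them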 (primary screen)", "cell system": "Drosophila S2R+ cells", "reagent": "long dsRNA against Drosophila genes, about 0.25 µg dsRNA per well, roughly 10,000 cells", "duration": "5 days of knock-down before the calcium assay", "challenge": "thapsigargin (SERCA pump blocker) to empty calcium stores; entry signal taken 4 min after adding it", "measured": "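Per-well fluo-4 fluorescence in two replicates, unnormalised, measured in resting cells and 4 min after store depletion by the SERCA blocker thapsigargin; ratio of the two present in few wells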", "direction": "calcium entry signal: higher = stronger calcium signal after store depletion; resting calcium signal: higher = higher resting calcium signal", "rule for the call": "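Called when the plate z-score of the entry-to-rest ratio, mean of duplicates, falls below −3; wells with low overall dye signal (Fmax z below −2) or more than five off-targets excluded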", "meaning of the calls": "active = strongly reduced calcium entry; inactive = no strong reduction", "note": "The deposit covers about 23,000 reagents; this is an unselected part of those with a known target gene and a result. Over the whole deposit, 75 (0.33%) were called active. 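Raw plate signals without normalisation; calls rest on plate z-scores that were not deposited; ratio present for only 364 wells.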 Unmarked entries are inactive. The record does not give: the dose of the treatment."}
{"Target gene": "E5", "DRSC id": "DRSC13000", "calcium entry signal, replicate 1 (fluorescence units)": 4.34e7, "calcium entry signal, replicate 2 (fluorescence units)": 3.86e7, "resting calcium signal, replicate 1 (fluorescence units)": 2.21e7, "resting calcium signal, replicate 2 (fluorescence units)": 1.60e7}
{"Target gene": "E5", "DRSC id": "DRSC16585", "calcium entry signal, replicate 1 (fluorescence units)": 3.10e7, "calcium entry signal, replicate 2 (fluorescence units)": 3.91e7, "resting calcium signal, replicate 1 (fluorescence units)": 1.89e7, "resting calcium signal, replicate 2 (fluorescence units)": 8.33e7}
{"Target gene": "E5", "DRSC id": "DRSC23157", "calcium entry signal, replicate 1 (fluorescence units)": 3.16e7, "calcium entry signal, replicate 2 (fluorescence units)": 3.13e7, "resting calcium signal, replicate 1 (fluorescence units)": 1.51e7, "resting calcium signal, replicate 2 (fluorescence units)": 1.51e7}
{"Target gene": "CG4267", "DRSC id": "DRSC00102", "calcium entry signal, replicate 1 (fluorescence units)": 1.83e7, "calcium entry signal, replicate 2 (fluorescence units)": 2.75e7, "resting calcium signal, replicate 1 (fluorescence units)": 1.13e7, "resting calcium signal, replicate 2 (fluorescence units)": 1.24e7}
{"Target gene": "CG4267", "DRSC id": "DRSC00647", "calcium entry signal, replicate 1 (fluorescence units)": 2.89e7, "calcium entry signal, replicate 2 (fluorescence units)": 3.31e7, "resting calcium signal, replicate 1 (fluorescence units)": 1.47e7, "resting calcium signal, replicate 2 (fluorescence units)": 1.64e7}
{"Target gene": "CG8568", "DRSC id": "DRSC20113", "calcium entry signal, replicate 1 (fluorescence units)": 2.80e7, "calcium entry signal, replicate 2 (fluorescence units)": 3.19e7, "resting calcium signal, replicate 1 (fluorescence units)": 1.31e7, "resting calcium signal, replicate 2 (fluorescence units)": 1.36e7}
{"Target gene": "Ir52c (Ionotropic receptor 52c)", "DRSC id": "DRSC21801", "calcium entry signal, replicate 1 (fluorescence units)": 2.71e7, "calcium entry signal, replicate 2 (fluorescence units)": 4.05e7, "resting calcium signal, replicate 1 (fluorescence units)": 1.64e7, "resting calcium signal, replicate 2 (fluorescence units)": 1.82e7}
{"Target gene": "CG32485", "DRSC id": "DRSC22666", "calcium entry signal, replicate 1 (fluorescence units)": 2.42e7, "calcium entry signal, replicate 2 (fluorescence units)": 2.45e7, "resting calcium signal, replicate 1 (fluorescence units)": 1.29e7, "resting calcium signal, replicate 2 (fluorescence units)": 1.07e7}
{"Target gene": "CG11808", "DRSC id": "DRSC06088", "calcium entry signal, replicate 1 (fluorescence units)": 2.18e7, "calcium entry signal, replicate 2 (fluorescence units)": 2.10e7, "resting calcium signal, replicate 1 (fluorescence units)": 1.01e7, "resting calcium signal, replicate 2 (fluorescence units)": 9.91e6}
{"Target gene": "cnir (cornichon related)", "DRSC id": "DRSC00499", "calcium entry signal, replicate 1 (fluorescence units)": 3.42e7, "calcium entry signal, replicate 2 (fluorescence units)": 2.28e7, "resting calcium signal, replicate 1 (fluorescence units)": 1.73e7, "resting calcium signal, replicate 2 (fluorescence units)": 1.06e7}

Already shown: an excerpt of the list.
{"Target gene": "CG4267", "DRSC id": "DRSC00647", "calcium entry signal, replicate 1 (fluorescence units)": 2.89e7, "calcium entry signal, replicate 2 (fluorescence units)": 3.31e7, "resting calcium signal, replicate 1 (fluorescence units)": 1.47e7, "resting calcium signal, replicate 2 (fluorescence units)": 1.64e7}
{"Target gene": "CG8568", "DRSC id": "DRSC20113", "calcium entry signal, replicate 1 (fluorescence units)": 2.80e7, "calcium entry signal, replicate 2 (fluorescence units)": 3.19e7, "resting calcium signal, replicate 1 (fluorescence units)": 1.31e7, "resting calcium signal, replicate 2 (fluorescence units)": 1.36e7}
{"Target gene": "Ir52c (Ionotropic receptor 52c)", "DRSC id": "DRSC21801", "calcium entry signal, replicate 1 (fluorescence units)": 2.71e7, "calcium entry signal, replicate 2 (fluorescence units)": 4.05e7, "resting calcium signal, replicate 1 (fluorescence units)": 1.64e7, "resting calcium signal, replicate 2 (fluorescence units)": 1.82e7}
{"Target gene": "CG32485", "DRSC id": "DRSC22666", "calcium entry signal, replicate 1 (fluorescence units)": 2.42e7, "calcium entry signal, replicate 2 (fluorescence units)": 2.45e7, "resting calcium signal, replicate 1 (fluorescence units)": 1.29e7, "resting calcium signal, replicate 2 (fluorescence units)": 1.07e7}

The listing continues:
{"Target gene": "CG13539", "DRSC id": "DRSC04181", "calcium entry signal, replicate 1 (fluorescence units)": 2.34e7, "calcium entry signal, replicate 2 (fluorescence units)": 2.71e7, "resting calcium signal, replicate 1 (fluorescence units)": 1.43e7, "resting calcium signal, replicate 2 (fluorescence units)": 1.27e7}
{"Target gene": "CG14642", "DRSC id": "DRSC12228", "calcium entry signal, replicate 1 (fluorescence units)": 4.01e7, "calcium entry signal, replicate 2 (fluorescence units)": 4.96e7, "resting calcium signal, replicate 1 (fluorescence units)": 1.90e7, "resting calcium signal, replicate 2 (fluorescence units)": 3.45e7}
{"Target gene": "l(2)05287 (lethal (2) 05287)", "DRSC id": "DRSC02151", "calcium entry signal, replicate 1 (fluorescence units)": 1.94e7, "resting calcium signal, replicate 1 (fluorescence units)": 1.13e7}
{"Target gene": "l(2)05287 (lethal (2) 05287)", "DRSC id": "DRSC02152", "calcium entry signal, replicate 1 (fluorescence units)": 2.28e7, "calcium entry signal, replicate 2 (fluorescence units)": 2.31e7, "resting calcium signal, replicate 1 (fluorescence units)": 1.35e7, "resting calcium signal, replicate 2 (fluorescence units)": 1.47e7}
{"Target gene": "CG31898", "DRSC id": "DRSC01019", "calcium entry signal, replicate 1 (fluorescence units)": 4.33e7, "calcium entry signal, replicate 2 (fluorescence units)": 4.78e7, "resting calcium signal, replicate 1 (fluorescence units)": 2.19e7, "resting calcium signal, replicate 2 (fluorescence units)": 2.27e7}
{"Target gene": "Ir67a (Ionotropic receptor 67a)", "DRSC id": "DRSC09897", "calcium entry signal, replicate 1 (fluorescence units)": 2.83e7, "calcium entry signal, replicate 2 (fluorescence units)": 3.25e7, "resting calcium signal, replicate 1 (fluorescence units)": 1.48e7, "resting calcium signal, replicate 2 (fluorescence units)": 1.41e7}
{"Target gene": "bowl", "DRSC id": "DRSC00805", "calcium entry signal, replicate 1 (fluorescence units)": 4.91e7, "resting calcium signal, replicate 1 (fluorescence units)": 2.87e7}
{"Target gene": "Uba3 (Ubiquitin-like activating enzyme 3)", "DRSC id": "DRSC06377", "calcium entry signal, replicate 1 (fluorescence units)": 3.55e7, "calcium entry signal, replicate 2 (fluorescence units)": 3.33e7, "resting calcium signal, replicate 1 (fluorescence units)": 1.58e7, "resting calcium signal, replicate 2 (fluorescence units)": 1.57e7}
{"Target gene": "Ptpa (Phosphotyrosyl phosphatase activator)", "DRSC id": "DRSC00776", "calcium entry signal, replicate 1 (fluorescence units)": 4.19e7, "resting calcium signal, replicate 1 (fluorescence units)": 2.22e7}
{"Target gene": "CG13457", "DRSC id": "DRSC10004", "calcium entry signal, replicate 1 (fluorescence units)": 4.67e7, "calcium entry signal, replicate 2 (fluorescence units)": 7.09e7, "resting calcium signal, replicate 1 (fluorescence units)": 2.28e7, "resting calcium signal, replicate 2 (fluorescence units)": 2.53e7}
{"Target gene": "CG1143", "DRSC id": "DRSC08188", "calcium entry signal, replicate 1 (fluorescence units)": 4.07e7, "calcium entry signal, replicate 2 (fluorescence units)": 4.81e7, "resting calcium signal, replicate 1 (fluorescence units)": 1.82e7, "resting calcium signal, replicate 2 (fluorescence units)": 2.07e7}
{"Target gene": "List (Lithium-inducible SLC6 transporter)", "DRSC id": "DRSC06520", "calcium entry signal, replicate 1 (fluorescence units)": 5.31e7, "calcium entry signal, replicate 2 (fluorescence units)": 4.64e7, "resting calcium signal, replicate 1 (fluorescence units)": 2.32e7, "resting calcium signal, replicate 2 (fluorescence units)": 2.31e7}
{"Target gene": "Prosbeta5R2 (Proteasome beta5 subunit-related 2)", "DRSC id": "DRSC01617", "calcium entry signal, replicate 1 (fluorescence units)": 3.14e7, "calcium entry signal, replicate 2 (fluorescence units)": 3.40e7, "resting calcium signal, replicate 1 (fluorescence units)": 1.74e7, "resting calcium signal, replicate 2 (fluorescence units)": 1.74e7}
{"Target gene": "CG30286", "DRSC id": "DRSC04070", "calcium entry signal, replicate 1 (fluorescence units)": 3.74e7, "calcium entry signal, replicate 2 (fluorescence units)": 4.75e7, "resting calcium signal, replicate 1 (fluorescence units)": 1.83e7, "resting calcium signal, replicate 2 (fluorescence units)": 2.14e7}
{"Target gene": "c-cup (calcutta cup)", "DRSC id": "DRSC00458", "calcium entry signal, replicate 1 (fluorescence units)": 3.43e7, "calcium entry signal, replicate 2 (fluorescence units)": 3.47e7, "resting calcium signal, replicate 1 (fluorescence units)": 1.65e7, "resting calcium signal, replicate 2 (fluorescence units)": 1.57e7}
{"Target gene": "CG5355", "DRSC id": "DRSC02844", "calcium entry signal, replicate 1 (fluorescence units)": 4.75e7, "resting calcium signal, replicate 1 (fluorescence units)": 2.41e7}
{"Target gene": "CG5535", "DRSC id": "DRSC10514", "calcium entry signal, replicate 1 (fluorescence units)": 3.45e7, "calcium entry signal, replicate 2 (fluorescence units)": 3.92e7, "resting calcium signal, replicate 1 (fluorescence units)": 1.56e7, "resting calcium signal, replicate 2 (fluorescence units)": 2.69e7}
